Measured data: PubChem BioAssay AID1053208 (Peter MacCallum Cancer Centre, 2014)

Aim: 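Synthetic lethal interactions between gene loss and doxorubicin in osteosarcoma cells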 (primary screen)
Cells: mouse osteosarcoma cells, early-passage culture from an engineered mouse model of fibroblastic bone tumour
Reagents: siRNA pool against mouse genes, 40 nM
Time to read-out: about 120 h (48 h before drug, then 72 h with drug)
Treatment: doxorubicin 100 nM for 72 h, roughly 30-40% inhibitory dose
Measurement: 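Luminescent ATP signal taken as viability with or without 100 nM doxorubicin for 72 h; mean of two wells set against non-targeting siRNA and turned into robust z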
Reading the numbers: viability z-score with doxorubicin: higher = more viable cells under doxorubicin; viability z-score without drug: higher = more viable cells with knock-down alone
Rule for the call: 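a pool counts as active when its viability z-score with doxorubicin is -2 or below and its z-score without drug lies between -2 and 2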
The deposit covers about 17,000 reagents; this is a random part of them. Over the whole deposit, 788 (4.7%) are marked active. 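Calls rest on z-score classes alone; an extra cut-off of viability at most 70% of control was not applied to them.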 Further read-outs or replicates are left out here.

For C1qtnf9 (GeneID 239126), the values are combined z-score class no change with or without drug; viability z-score with doxorubicin -0.9; viability z-score without drug -0.17; inactive.
For Tmem71 (GeneID 213068), the entry reads combined z-score class no change with or without drug; viability z-score with doxorubicin -0.45; viability z-score without drug 0.84; inactive.
Depletion of Sh3tc1 (GeneID 231147) came out at: combined z-score class no change with or without drug; viability z-score with doxorubicin -1.24; viability z-score without drug -0.17; inactive.
Knock-down of Gp5 (GeneID 14729) resulted in: combined z-score class no change with or without drug; viability z-score with doxorubicin 0.22; viability z-score without drug 0.67; inactive.
Against Apmap (GeneID 71881), the values are combined z-score class high cell count with doxorubicin only; viability z-score with doxorubicin 2.02; viability z-score without drug 1.85; inactive.
With knock-down of Prss23 (GeneID 76453) the results were combined z-score class low cell count with doxorubicin only; viability z-score with doxorubicin -2.7; viability z-score without drug -0.51; active.
For Ube2n (GeneID 93765) the deposit lists combined z-score class no change with or without drug; viability z-score with doxorubicin -0.9; viability z-score without drug 1.85; inactive.
After knock-down of Cd79b (GeneID 15985), the screen gave combined z-score class no change with or without drug; viability z-score with doxorubicin 0.9; viability z-score without drug -1.01; inactive.
After knock-down of Ear3 (GeneID 53876) the results were combined z-score class no change with or without drug; viability z-score with doxorubicin 0.67; viability z-score without drug 1.18; inactive.
With knock-down of Rgs2 (GeneID 19735), the screen gave combined z-score class no change with or without drug; viability z-score with doxorubicin 0.45; viability z-score without drug -1.52; inactive.
With knock-down of Itgam (GeneID 16409), the record shows combined z-score class no change with or without drug; viability z-score with doxorubicin -0.45; viability z-score without drug 0.67; inactive.

Part of the list above in another layout.
target,combined z-score class,viability z-score with doxorubicin,viability z-score without drug,Outcome
Prss23 (GeneID 76453),low cell count with doxorubicin only,-2.7,-0.51,active
Ube2n (GeneID 93765),no change with or without drug,-0.9,1.85,inactive
Cd79b (GeneID 15985),no change with or without drug,0.9,-1.01,inactive
Ear3 (GeneID 53876),no change with or without drug,0.67,1.18,inactive

The results go on:
For Slc16a14 (GeneID 71781), the entry reads combined z-score class no change with or without drug; viability z-score with doxorubicin -1.01; viability z-score without drug -0.17; inactive.
With knock-down of Epb42 (GeneID 13828), the screen gave combined z-score class no change with or without drug; viability z-score with doxorubicin -1.12; viability z-score without drug -0.51; inactive.
Silencing of Fcer1g (GeneID 14127) resulted in: combined z-score class no change with or without drug; viability z-score with doxorubicin -1.24; viability z-score without drug -0.34; inactive.
For Tmem201 (GeneID 230917) the deposit lists combined z-score class no change with or without drug; viability z-score with doxorubicin -0.45; viability z-score without drug 0.34; inactive.
Silencing of Naa10 (GeneID 56292) gave: combined z-score class no change with or without drug; viability z-score with doxorubicin -0.79; viability z-score without drug -0.84; inactive.
Depletion of Plin4 (GeneID 57435) resulted in: combined z-score class no change with or without drug; viability z-score with doxorubicin -1.91; viability z-score without drug 0; inactive.
For Unc5b (GeneID 107449), the values are combined z-score class no change with or without drug; viability z-score with doxorubicin 0.45; viability z-score without drug 0.67; inactive.
Silencing of Vcp (GeneID 269523) resulted in: combined z-score class low cell count with doxorubicin only; viability z-score with doxorubicin -5.06; viability z-score without drug -1.52; active.
Sprr2i (GeneID 20763) scored combined z-score class no change with or without drug; viability z-score with doxorubicin 1.35; viability z-score without drug 1.69; inactive.
Pla2g12b (GeneID 69836) scored combined z-score class no change with or without drug; viability z-score with doxorubicin 0.67; viability z-score without drug -0.84; inactive.
Depletion of Zbtb37 (GeneID 240869) gave: combined z-score class no change with or without drug; viability z-score with doxorubicin -0.22; viability z-score without drug -0.51; inactive.
Ropn1 (GeneID 76378) showed combined z-score class no change with or without drug; viability z-score with doxorubicin -1.01; viability z-score without drug -0.84; inactive.
Apoa1 (GeneID 11806) scored combined z-score class no change with or without drug; viability z-score with doxorubicin -1.57; viability z-score without drug 0.17; inactive.
Knock-down of Frey1 (GeneID 75641) gave: combined z-score class low cell count with and without drug; viability z-score with doxorubicin -2.47; viability z-score without drug -2.87; inactive.
Against Tab3 (GeneID 66724), the values are combined z-score class no change with or without drug; viability z-score with doxorubicin 0.79; viability z-score without drug 0.84; inactive.
Or4c118 (GeneID 258894) showed combined z-score class high cell count with and without drug; viability z-score with doxorubicin 2.25; viability z-score without drug 2.53; inactive.
Slitrk5 (GeneID 75409) showed combined z-score class no change with or without drug; viability z-score with doxorubicin 0.22; viability z-score without drug 0.17; inactive.
